Like-named read-outs stand apart in the source and are kept apart here. Results are given in words; binding and its absence hold for the method and conditions named. For some of these results: In cells and extracts the contact can be indirect. Some results given as binding are weak or reduced against the parent protein; the word gives no strength. For some of these results: Tags and fused reporters may be left off the sequences shown.
Legend:
[1] = molecular target: T1, Arc (rat (endogenous in primary hippocampal neurons)) (UniProt Q63053); assay: proximity ligation
T1 sequence: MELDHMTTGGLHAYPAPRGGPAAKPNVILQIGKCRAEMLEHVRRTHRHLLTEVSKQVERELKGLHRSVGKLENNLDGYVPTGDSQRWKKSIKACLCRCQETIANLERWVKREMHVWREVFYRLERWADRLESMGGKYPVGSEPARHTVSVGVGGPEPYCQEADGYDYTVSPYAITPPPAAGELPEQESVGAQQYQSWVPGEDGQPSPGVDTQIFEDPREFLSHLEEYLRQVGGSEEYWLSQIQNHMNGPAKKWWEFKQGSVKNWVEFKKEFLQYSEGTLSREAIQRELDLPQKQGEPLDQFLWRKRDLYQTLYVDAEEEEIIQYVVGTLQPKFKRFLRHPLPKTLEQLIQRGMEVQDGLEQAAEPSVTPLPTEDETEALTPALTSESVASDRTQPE

[2] = molecular target: T2, Arc (mouse (endogenous in forebrain)) (UniProt Q9WV31); assay: co-IP
T2 sequence: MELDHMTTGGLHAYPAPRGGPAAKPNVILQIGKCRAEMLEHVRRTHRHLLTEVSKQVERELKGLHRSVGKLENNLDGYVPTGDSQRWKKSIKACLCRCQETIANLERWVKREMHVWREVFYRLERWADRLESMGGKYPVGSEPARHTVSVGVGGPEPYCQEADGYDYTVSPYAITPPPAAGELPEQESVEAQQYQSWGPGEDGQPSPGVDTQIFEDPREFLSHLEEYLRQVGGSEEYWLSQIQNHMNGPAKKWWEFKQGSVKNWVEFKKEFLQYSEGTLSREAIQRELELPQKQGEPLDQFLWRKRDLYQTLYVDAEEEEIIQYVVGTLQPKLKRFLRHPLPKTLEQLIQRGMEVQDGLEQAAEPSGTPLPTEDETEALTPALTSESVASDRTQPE

[3] = molecular target: T3, purified Arc protein (not stated (rat Arc cDNA named for the other plasmids)) (UniProt Q63053); assay: co-sedimentation
T3 sequence: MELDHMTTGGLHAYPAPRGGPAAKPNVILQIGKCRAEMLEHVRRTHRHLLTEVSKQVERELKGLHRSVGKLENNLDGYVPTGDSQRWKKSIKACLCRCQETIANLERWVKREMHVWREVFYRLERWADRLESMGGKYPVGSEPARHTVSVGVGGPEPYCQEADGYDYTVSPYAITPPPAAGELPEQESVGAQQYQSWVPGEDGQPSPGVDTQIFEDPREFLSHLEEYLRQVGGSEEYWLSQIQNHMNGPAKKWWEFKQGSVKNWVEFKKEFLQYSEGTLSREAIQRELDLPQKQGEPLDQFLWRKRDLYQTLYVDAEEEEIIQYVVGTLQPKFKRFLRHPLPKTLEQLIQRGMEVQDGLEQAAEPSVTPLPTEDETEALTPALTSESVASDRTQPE

[4] = molecular target: IRSp53 (mouse) (UniProt Q8BKX1); assay: co-IP
[5] = molecular target: GST-IRSp53 (mouse) (UniProt Q8BKX1); assay: pull-down
[6] = molecular target: T4, GST-IRSp53-SH3 (mouse) (UniProt Q8BKX1); assay: pull-down
T4 sequence: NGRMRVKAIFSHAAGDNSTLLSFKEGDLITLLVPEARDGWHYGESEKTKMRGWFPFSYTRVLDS

[7] = molecular target: IRSp53 (mouse) (UniProt Q8BKX1); assay: co-IP; remark: listed apart in the source

**Q.** With IRSp53 (from UniProt Q6GMN2 1-535) as the molecule, how does the binding [1] read?
**A.** binds

**Q.** IRSp53 (from UniProt Q8BKX1 1-535) was tested. Which binding [2] did it give?
**A.** binds

**Q.** For IRSp53 (from UniProt Q8BKX1-1 1-535), which binding [3] is on record?
**A.** binds

**Q.** “myc-Arc^Δ20–40 (from UniProt Q63053 1-396)” was tested. Which binding [4] did it give?
**A.** no binding

B1: purified Arc protein (protein, UniProt Q63053 1-396)
chain: MELDHMTTGGLHAYPAPRGGPAAKPNVILQIGKCRAEMLEHVRRTHRHLLTEVSKQVERELKGLHRSVGKLENNLDGYVPTGDSQRWKKSIKACLCRCQETIANLERWVKREMHVWREVFYRLERWADRLESMGGKYPVGSEPARHTVSVGVGGPEPYCQEADGYDYTVSPYAITPPPAAGELPEQESVGAQQYQSWVPGEDGQPSPGVDTQIFEDPREFLSHLEEYLRQVGGSEEYWLSQIQNHMNGPAKKWWEFKQGSVKNWVEFKKEFLQYSEGTLSREAIQRELDLPQKQGEPLDQFLWRKRDLYQTLYVDAEEEEIIQYVVGTLQPKFKRFLRHPLPKTLEQLIQRGMEVQDGLEQAAEPSVTPLPTEDETEALTPALTSESVASDRTQPE
**Q.** How did the binding [5] turn out when B1 was run?
**A.** binds

**Q.** And the binding [6]?
**A.** binds

B2: myc-Arc (protein, UniProt Q63053 1-396)
chain: MELDHMTTGGLHAYPAPRGGPAAKPNVILQIGKCRAEMLEHVRRTHRHLLTEVSKQVERELKGLHRSVGKLENNLDGYVPTGDSQRWKKSIKACLCRCQETIANLERWVKREMHVWREVFYRLERWADRLESMGGKYPVGSEPARHTVSVGVGGPEPYCQEADGYDYTVSPYAITPPPAAGELPEQESVGAQQYQSWVPGEDGQPSPGVDTQIFEDPREFLSHLEEYLRQVGGSEEYWLSQIQNHMNGPAKKWWEFKQGSVKNWVEFKKEFLQYSEGTLSREAIQRELDLPQKQGEPLDQFLWRKRDLYQTLYVDAEEEEIIQYVVGTLQPKFKRFLRHPLPKTLEQLIQRGMEVQDGLEQAAEPSVTPLPTEDETEALTPALTSESVASDRTQPE
**Q.** Which binding [7] does the source give for B2 here?
**A.** binds

Source: paper doi:10.1101/2024.01.30.578027
